According to PubChem BioAssay AID1258 (University of Pittsburgh Molecular Library Screening Center, 2008):
Among all 1,100 compounds or so, about 150 (14%) were called active. The shares of active, inactive and inconclusive entries below differ from those in the screen.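 How the source made its calls: active means inhibition above about 50% in both repeat tests (limit read from the data); inconclusive means one repeat under the set limit, the other over it; inactive means both repeats under the set limit.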

assay: antileishmanial activity against promastigotes – 1 µM repeat of primary hits, confirmation (AID 1258); conditions: L. major promastigote growth, resazurin fluorescence, 48 h; at 1 µM; active compounds read high
How it was run: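 Material: Leishmania major promastigote parasites; amount: 5,000 promastigotes/well; buffer or medium: M199, 10% heat-inactivated FBS; compound dosing: single dose of 1 µM per compound, retest of primary hits; times: 44 h compound exposure plus 4 h dye step, both 28 °C; read-out basis: parasite viability inhibition versus plate controls; benchmarks: DMSO MAX/MIN, tamoxifen reference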

inhibition, inconclusive:
Cc1ccc(N(CC(O)CON=C2c3ccccc3-c3ccccc32)S(C)(=O)=O)cc1 (stereo not given) 54.8%, c1cncc(C2Nc3ccccc3-c3nc4ccccc4n32)c1 (stereo not given) 49.5%, Cc1ccc(C)c(N2CCN(C(=O)c3ccc(CSc4nc5ccncc5[nH]4)cc3)CC2)c1 50.6%, Brc1cccc(-c2nnc3sc(CNC4CCCC4)cn23)c1 50%, OCCC1CN(Cc2cccc(C(F)(F)F)c2)CCN1Cc1ccccc1 (stereo not given) 50.1%, CC(C)N=C(NS(=O)(=O)c1ccccc1)C(Cl)(Cl)Cl 48%, Cc1ccccc1N(C(=O)c1cccs1)c1nc2ccccc2s1 50.9%, Cc1cc(C)c(S(=O)(=O)c2c(C)cccc2C)c(OCC(C)C)n1 53.3%, O=S(=O)(CC(CN1CCCCC1)N1CCCCC1)c1ccc2ccccc2c1 (stereo not given) 55.2%, OCC1(Cc2ccccc2)CCN(C2CCN(c3ccccc3F)CC2)CC1 47.9%

inhibition, inactive:
COC(=O)CN1C(c2cccc(Cl)c2)=Nc2ccc(Cl)cc2C1c1ccccc1 (stereo not given) 29.1%, COc1ccc(CC2NCCC3(O)CCCCC23)cc1 (stereo not given) -6.72%

inhibition, active:
COc1cccc2c(=O)c(C/C=C(/C)Cl)c(C)[nH]c12 99.3%, O=C(CCl)Nc1cccc(-c2cnc3ccccc3n2)c1 77.3%, COC(=O)c1ccc(COc2ccc(C3C4=C(CCCC4=O)Nc4onc(C)c43)cc2)cc1 (stereo not given) 54.8%
